{"sequences": {"note": "Chains of the proteins cited; added tags and fusions are not shown.", "UniProt Q8NER1, whole entry": "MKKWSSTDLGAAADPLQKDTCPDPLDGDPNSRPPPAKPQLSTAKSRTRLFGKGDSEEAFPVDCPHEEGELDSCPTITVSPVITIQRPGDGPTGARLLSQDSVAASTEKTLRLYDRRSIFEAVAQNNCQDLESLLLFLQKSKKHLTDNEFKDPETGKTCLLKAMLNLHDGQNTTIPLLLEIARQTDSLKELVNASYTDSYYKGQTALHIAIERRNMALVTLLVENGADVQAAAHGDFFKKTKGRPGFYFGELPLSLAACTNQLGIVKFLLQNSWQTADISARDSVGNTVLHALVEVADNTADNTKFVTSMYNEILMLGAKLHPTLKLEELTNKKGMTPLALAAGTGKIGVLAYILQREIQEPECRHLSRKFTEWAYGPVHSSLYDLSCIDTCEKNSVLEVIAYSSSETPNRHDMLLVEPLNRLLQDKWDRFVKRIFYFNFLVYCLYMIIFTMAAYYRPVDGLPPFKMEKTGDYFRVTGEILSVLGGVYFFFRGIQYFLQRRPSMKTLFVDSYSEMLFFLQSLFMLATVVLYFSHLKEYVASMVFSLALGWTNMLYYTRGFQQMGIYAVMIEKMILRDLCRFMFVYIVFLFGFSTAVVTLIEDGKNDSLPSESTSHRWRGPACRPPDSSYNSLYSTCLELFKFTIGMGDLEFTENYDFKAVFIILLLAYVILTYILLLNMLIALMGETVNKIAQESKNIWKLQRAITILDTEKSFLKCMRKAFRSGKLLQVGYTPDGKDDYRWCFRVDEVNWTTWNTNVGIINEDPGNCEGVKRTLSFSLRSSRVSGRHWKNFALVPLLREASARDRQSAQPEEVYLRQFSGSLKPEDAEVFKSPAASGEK"}, "source": "patent US12653814B2", "about": "“Benzimidazolone-based cinnamamide derivative as TRPV1 antagonist and pharmaceutical composition for treatment or prevention of pain containing same as active ingredient” (JMACKEM CO., LTD, priority 2020, dated 2026)", "biological_target": "T1, human TRPV1 (hTRPV1) (Homo sapiens, UniProt Q8NER1)", "T1 construct": "host or cells: HEK (PrecisION hTRPV1-HEK recombinant cell line)", "experiment": "Evaluation of human pH inhibitory activity in hTRPV1-HEK recombinant cells", "assay_type": "cell-based", "settings": "inhibition of activation at final pH 6.0, test substance 3 μM", "procedure": "Evaluation of Human pH Inhibitory Activity\nPrecisION™ hTRPV1-HEK recombinant cells (CYL3063) were purchased from Millipore and used. After culturing the above cells under the conditions of 37° C. and 5% CO2, the cells were inoculated in a 96-well plate at the density of 5×10^4 cells/well, followed by culture for 16 hours. Then, the medium was removed and 100 uL of a staining solution was put into each well, followed by culture for 30 minutes under the conditions of 37° C. and 5% CO2. After 30 minutes, all of the existing staining solution was removed and replaced with 100 uL of HBSS. Thereafter, the cells were acclimatized to room temperature for 15 minutes, and the test substances (example compounds and comparative example compounds of the present invention) were added to each well, followed by culture at room temperature for 15 minutes. Then, the final pH was adjusted to 6.0 using MES, and fluorescence was measured (ex485/em535). In the pH assay, the efficacy of the drug was evaluated using BCTC as a TRPV1 antagonist.", "note": "Some of these results come from one statement about several compounds together."}
{"smiles": "CC(C)Oc1nc(C(F)(F)F)ccc1CNC(=O)Nc1cccc2[nH]c(=O)[nH]c12", "note": "[Comparative Example 2, 1-[[2-isopropoxy-6-(trifluoromethyl)-3-pyridyl]methyl]-3-(2-oxo-1,3-dihydrobenzimidazol-4-yl)urea, reference compound]", "values": [{"measurement": "hTRPV1 pH (%, 3 μM)", "value": "out of the appropriate range of 20% to 80%"}]}
